Test results published in the supplement of paper PMC10689618.
Counter-ions that a name gives are not always drawn. Some of the results follow. Many values rest on one well or one pass, so single values are uncertain.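 Primary human fetal astrocytes engulfed labelled rat cortical synaptosomes, measured as a red/green ratio corrected for calcein live-cell signal and scaled to the plate median. Toxicity meant calcein falling over 30%; decreased phagocytosis meant below 70% of median above 5 µM.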

Experiments:
Conditions in all cases: 24 h
[1] = system: Human fetal astrocytes; experiment: loss of total cells relative to no-compound high-control median (toxicity); higher = more toxic (fewer cells)
[2] = system: Human fetal astrocytes; experiment: as above; remark: listed apart in the source
[3] = system: Human fetal astrocytes; experiment: synaptosome phagocytosis (pHrodo/calcein intensity ratio) relative to plate median of data wells; higher = more phagocytosis
[4] = system: Human fetal astrocytes; experiment: as above; remark: listed apart in the source

Compound	loss of total cells ([1]; 1.39 µM) [%]	loss of total cells ([1]; 2.78 µM) [%]	loss of total cells ([1]; 5.56 µM) [%]	loss of total cells ([1]; 11.11 µM) [%]	loss of total cells ([1]; 22.22 µM) [%]	loss of total cells ([2]; 1.39 µM) [%]	loss of total cells ([2]; 2.78 µM) [%]	loss of total cells ([2]; 5.56 µM) [%]	loss of total cells ([2]; 11.11 µM) [%]	loss of total cells ([2]; 22.22 µM) [%]	synaptosome phagocytosis ([3]; 1.39 µM) [%]	synaptosome phagocytosis ([3]; 2.78 µM) [%]	synaptosome phagocytosis ([3]; 5.56 µM) [%]	synaptosome phagocytosis ([3]; 11.11 µM) [%]	synaptosome phagocytosis ([3]; 22.22 µM) [%]	synaptosome phagocytosis ([4]; 1.39 µM) [%]	synaptosome phagocytosis ([4]; 2.78 µM) [%]	synaptosome phagocytosis ([4]; 5.56 µM) [%]	synaptosome phagocytosis ([4]; 11.11 µM) [%]	synaptosome phagocytosis ([4]; 22.22 µM) [%]
CN1C(=O)CCS(=O)(=O)C1c1ccc(Cl)cc1 (stereo not given) [Chlormezanone]	1.3	-12.8	0	-22.9	-6.4	-0.4	14.1	8.7	-7.9	-1.5	118	159	135	138	120	81	90.8	122	99.7	113
CC[C@@H](CO)NC(=O)[C@@H]1C=C2c3cccc4c3c(cn4C)C[C@H]2N(C)C1 [Methysergide maleate]	8.1	-10.4	3.3	-4.8	15.9	-37.9	-23.8	-7.5	37.7	7.8	108	102	92	124	106	98.4	120	88.1	92.4	99.5
CC(NC(C)(C)C)C(=O)c1cccc(Cl)c1 (stereo not given) [Bupropion hydrochloride]	-23.1	-11.7	-23.5	-20.2	-14.7	21	-36.5	19.9	27.2	9	132	85.5	144	114	106	97.2	90.3	120	115	97.1
CC[C@@]1(O)C(=O)OCc2c1cc1n(c2=O)Cc2cc3ccccc3nc2-1 [(S)-(+)-Camptothecin]	7.1	-20.5	-14	-30.9	2.4	4.1	17.7	5.1	13.5	0.7	76.3	68.9	86.4	64.3	104	92.3	81.8	68.9	74.8	108
NCCCNCCSP(=O)(O)O [Amifostine]	-20.9	-14.1	-7.8	-6.7	-4.9	-17.7	-27	-11.2	3	-0.9	93.7	87	101	105	86.5	95.3	91.3	77.4	94.5	105
CCC1(c2ccc(N)cc2)CCC(=O)NC1=O (racemic) [(±)-p-Aminoglutethimide]	1.1	-18	-10.6	-22.9	9.4	-27.4	-2.7	9.9	-13.3	14.7	94.2	99.7	112	123	110	125	108	115	110	111
CN1[C@@H]2CC[C@H]1C[C@@H](OC(=O)[C@H](CO)c1ccccc1)C2 [L-Hyoscyamine]	-16.3	-23.1	-28	-1.3	1.6	3.3	-3.4	8.7	5.5	0.6	121	115	98.9	102	93.6	94.1	124	95.8	90.6	112
COc1ccc(OC)c(C(O)C(C)N)c1 (stereo not given) [Methoxamine hydrochloride]	-11.8	-7.7	17.4	-11.4	4.7	-27.4	-18	-12.9	-10.2	1.1	110	112	95.4	104	105	112	103	89.5	121	121
Cc1cccc(C)c1NC1=NCCCS1 [Xylazine hydrochloride]	-28.9	-18.3	-10.7	1.9	-33.7	-10	-10.7	8.7	-8.6	-2.3	138	111	103	98.4	128	80	94.4	99.4	75.7	87.6
NC(=O)CN1CCCC1=O [Piracetam]	-18.5	4.1	-9.9	16.2	16.8	-8.3	-6.4	-5.1	25	-6.2	87.4	107	88.4	105	109	107	87	82.7	131	122
CN1CCN(C(=O)OC2c3nccnc3C(=O)N2c2ccc(Cl)cn2)CC1 (stereo not given) [Zopiclone]	-19.6	2.7	10.7	-2.7	-9.9	11.2	3.2	17.4	-13.8	36.4	147	139	106	92.2	121	110	90.2	89.4	80.9	108
CCCN1C[C@H](CSC)C[C@@H]2c3cccc4[nH]cc(c34)C[C@H]21 [Pergolide methanesulfonate]	-14.6	-3.9	6.2	10.3	-0.8	18.5	-16.7	14.9	-4.3	0.3	120	101	105	43.5	95.3	84.8	84.1	114	103	88.9
N.N.[Cl][Pt][Cl]						2.4	-32.5	5.6	39.7	3.4	130	124	92.9	133	92.6					
CN(C)C(=O)Oc1cccc([N+](C)(C)C)c1 [Neostigmine bromide]	-10	3.2	14.6	18.1	23.4	-34.9	-1.5	1.5	5.5	2.3	99.5	112	94.1	101	128	113	126	140	122	137
CC(C)(C)NCC(O)c1cc(Cl)c(N)c(Cl)c1 (stereo not given)						11.2	5.4	11.6	7.9	18.2	110	96.6	107	85.7	79.5					
COc1ccc(C(CN(C)C)C2(O)CCCCC2)cc1 (stereo not given)						-41.9	26.2	13	44.3	3.4	56.2	122	87.6	118	85					
CC(C)=CC1C(C(=O)OCc2cccc(Oc3ccccc3)c2)C1(C)C (stereo not given)						8.3	-1.8	8	-7.9	18.2	94.1	96.8	56.3	77.3	97.7					

Compound	loss of total cells ([1]; 1.39 µM) [%]	loss of total cells ([1]; 2.78 µM) [%]	loss of total cells ([1]; 5.56 µM) [%]	loss of total cells ([1]; 11.11 µM) [%]	loss of total cells ([1]; 22.22 µM) [%]	loss of total cells ([2]; 1.39 µM) [%]	loss of total cells ([2]; 2.78 µM) [%]	loss of total cells ([2]; 5.56 µM) [%]	loss of total cells ([2]; 11.11 µM) [%]	loss of total cells ([2]; 22.22 µM) [%]	synaptosome phagocytosis ([3]; 1.39 µM) [%]	synaptosome phagocytosis ([3]; 2.78 µM) [%]	synaptosome phagocytosis ([3]; 5.56 µM) [%]	synaptosome phagocytosis ([3]; 11.11 µM) [%]	synaptosome phagocytosis ([3]; 22.22 µM) [%]	synaptosome phagocytosis ([4]; 1.39 µM) [%]	synaptosome phagocytosis ([4]; 2.78 µM) [%]	synaptosome phagocytosis ([4]; 5.56 µM) [%]	synaptosome phagocytosis ([4]; 11.11 µM) [%]	synaptosome phagocytosis ([4]; 22.22 µM) [%]
C=C1C[C@@H]2[C@H](CC[C@]3(C)C(=O)CC[C@@H]23)[C@@]2(C)C=CC(=O)C=C12						-24.2	-41.3	8.1	-4.9	-17.8	101	77.8	135	71.7	86.9					
CO[C@H]1[C@H](O)[C@H](O[C@H]2CC[C@@]3(C=O)[C@H](CC[C@@H]4[C@@H]3CC[C@]3(C)[C@@H](C5=CC(=O)OC5)CC[C@]43O)C2)O[C@@H](C)[C@@H]1O						15.5	0.4	7.2	-7.9	9.8	60.7	18.4	18.5	39.2	21.9					
CC[C@@H](CO)NC(=O)[C@@H]1C=C2c3cccc4[nH]cc(c34)C[C@H]2N(C)C1 [Methylergonovine maleate]	-25.1	4.1	0.5	18.1	4.7	15.1	-5.8	-10.5	-10.7	31.9	121	108	80.8	97.4	126	114	88.4	73.5	96.1	119
C[N+]1(C)[C@@H]2CC[C@H]1C[C@@H](OC(=O)C(CO)c1ccccc1)C2 (stereo not given in full) [Atropine methyl bromide]	-17.2	-11.1	-1.4	-10.3	-9.4	28.2	-48.4	-11.2	8.9	4.7	167	72.2	102	78	103	96.9	98.5	108	80.4	110
CC(=O)O[C@H]1CC[C@@]2(C)[C@H](CC[C@@H]3[C@@H]2CC[C@]2(C)[C@@H](C4=CC(=O)OC4)[C@@H](OC(C)=O)C[C@]32O)C1						17.8	8.6	34.4	45.2	4.8	71.9	52.7	18.2	12.2	47.2					
C[C@]12CC[C@H]3[C@@H](CC[C@]4(O)C[C@@H](O)CC[C@]34C=O)[C@@]1(O)CC[C@@H]2C1=CC(=O)OC1						-2.5	2.5	23.2	7.1	3	43	85.7	61.3	41.3	15.5					
Oc1cc(Cl)ccc1Oc1ccc(Cl)cc1Cl						-14.5	-47.6	0.6	35.1	32.1	110	138	103	69.3	17.7					
CC[N+]1(C)CCCC(OC(=O)C(O)(c2ccccc2)c2ccccc2)C1 (stereo not given)						6.9	10.5	5.1	-10.5	0.8	127	123	105	81.9	102					
COC(=O)[C@]1(C)CC[C@]2(C)CC[C@]3(C)C4=CC=C5C(=CC(=O)C(O)=C5C)[C@]4(C)CC[C@@]3(C)[C@@H]2C1						9.7	58.1	68.8	104	103	98.3	21.3	0	0	0					
COc1cc2ccc(=O)oc2c2ccoc12						-6.2	10	-22.1	21.9	27.8	97.4	120	99.8	101	119					
C[C@]12CC[C@@H](O)C[C@@H]1CC[C@@H]1[C@@H]2CC[C@]2(C)C(=O)CC[C@@H]12						-9	9	11	8.8	13.3	120	107	93	70	103					
CN[C@@H](C)[C@@H](O)c1ccccc1						2.7	-4.4	-28.6	-2	20.4	92.4	84.1	110	114	95.4					
COC1=CC(=O)O[C@@H](/C=C/c2ccccc2)C1						27.1	18.4	9.4	1.3	23.5	52.6	146	104	70.8	126					
O=C(O)CCCO						-9.1	1.5	1.5	7	16.4	118	84.1	98.4	97.1	99.7					
O=C1CCCN1CC#CCN1CCCC1						-24.6	11.9	17.6	2.7	6.7	99.7	129	140	86.3	104					
COc1ccc(CCN2CCC(Nc3nc4ccccc4n3Cc3ccc(F)cc3)CC2)cc1						-14.9	12	-0.8	54.2	81.9	86.3	85.9	54.2	19.8	0					
